Measured values as given in US20190022061A1, “Statins (Atorvastatin) can lower blood sugar level in diabetic” (priority 2017, published 2019).

Assays:
Type in all cases: in vivo, C57BL/6J mice
[1] = tested on: Diet-induced obesity (DIO) mice; assay: Blood glucose level in DIO mice; details: po three times a day, compared with the vehicle groups, 8 weeks post dose
Experimental: (§1) In this study, RAASUS products (KH103, KHJ and KHGD) were dosed three times a day (T ID) for 99 days. Atorvastatin was used as a positive control at a dose of 20 mg/kg three times a day (T ID). On day 63 post dosing, OGTT test were conducted for all of the mice. On the day 65 post dosing, 6 mice from each group were killed for bio-marker samples collection. Body weight and food intake were detected twice per week. On day −5, day 14, day 28 the non-fast blood was collected to determine the non-fast BG, insulin, TG, HDL-C, LDL-C and TCHO level. On day 42, day 56, day 70, day 84 the fast blood was collected to determine the fast BG, insulin, TG, HDL-C, LDL-C and TCHO level.
(§2) Male C57BL/6J mice (Shanghai Laboratory Animal Center, Shanghai, China, 5 weeks) were fed with high fat diet (D12492i, Research Diet, New Brunswick, N.J.) (caloric contribution: protein, 20%; fat, 60%; carbohydrates, 20%) ad lib for 21 weeks for the induction of obesity. […]
(§3) The random blood glucose, insulin level were measured using tailing nick once per two weeks on day −5, day 14, day 28.
(§4) The fast blood glucose (fast from 17:30 to 8:00 AM) insulin level were measured using tailing nick once per two weeks on day 42, day 56, day 70, day 84. […]
Blood Glucose: Blood glucose was determined using the Glucosemeter (Johnson and Johnson) and the Glucose Test Strips (Johnson and Johnson).

[2] = tested on: Diet-induced obesity (DIO) mice; assay: OGTT (oral glucose tolerance test) in DIO mice; details: po three times a day, compared with the vehicle groups
Experimental: as §1
Male C57BL/6J mice (Shanghai Laboratory Animal Center, Shanghai, China, 5 weeks) were fed with high fat diet (D12492i, Research Diet, New Brunswick, N.J.) (caloric contribution: protein, 20%; fat, 60%; carbohydrates, 20%) ad lib for 21 weeks for the induction of obesity.
The mice of group 1 and group 2 were orally dosed with vehicle or Atorvastatin-20 mg/l<g respectively three times per day at 9:00, 13:00, 17:00 and fresh water, ad libitum from Day O to Day 99. […]
as §4

[3] = tested on: Diet-induced obesity (DIO) mice; assay: Plasma insulin level in DIO mice; details: po three times a day
Experimental: as §1, §2, §3, §4
Plasma Insulin assay: Plasma insulin was determined using a commercial kit (Catalog #: EZRM1-13K) purchased from Millipore (Billerica, Mass., USA).

## CC(C)c1c(C(=O)Nc2ccccc2)c(-c2ccccc2)c(-c2ccc(F)cc2)n1CC[C@@H](O)C[C@@H](O)CC(=O)O [Atorvastatin]
[1]
  blood glucose level AUC (0-8 weeks): significantly decrease
[2]; post dose 63 days
  OGTT glucose AUC (0-120 min): significantly decrease
[2]; post dose 91 days
  OGTT glucose AUC (0-120 min): significantly decrease
[3]; 10 weeks and 12 weeks post dose
  plasma insulin level: trend to decrease
[3]; compared with the vehicle groups, post dose 8 weeks
  insulin AUC (0-8 weeks): significantly decrease
